Source: patent publication US20050069544A1, “Pharmaceutical composition and a method of treatment” (priority 1998, published 2005)
Some entries share one result that the patent states for a list of compounds.

Tests used:
[1] = test system: PBMC from RhD-alloimmunised donors; assay: celELISA of cytokine production (IL-10, TGF-β1) by PBMC from RhD alloimmunised donors; assay type: cell-based, human; conditions: celELISA 5 days after stimulation; for percentage of donors whose PBMC produced significant IL-10: FIG. 10; for percentage of donors whose PBMC produced significant TGF-β1: FIG. 11
Procedure: (§1) Cultured T-cells are stimulated with each of the epitopes given in Table 1 and after 5 days the responding cells were transferred to flat-bottomed microtitre plates (96-well Nunc-Immuno Maxisorp) coated with […] per well of monoclonal anti-cytokine capture antibody diluted in 0.05M alkaline carbonate coating buffer pH 9.6. Unbound capture antibody was removed by two washes with HBSS and non-specific binding potential blocked by incubation with 200 μl per well of phosphate buffered saline, pH 7.4 (PBS containing 3% BSA).
(§2) Five days after stimulation, lymphocyte cultures were mixed to resuspend the cells and duplicate 100 μl aliquots were transferred into wells coated with the respective capture antibody specific for IFN-γ, IL-10 or TGF-β. The plates coated with capture antibodies and layered by lymphocytes were then incubated for a further 24 hours at 37° C. in a humidified atmosphere of 5% CO2 and 95% air. After this incubation the PBMC were removed by four washes with 0.2% Tween/PBS. One hundred microlitre aliquots of the appropriate biotinylated monoclonal detection antibody in 0.2% BSA/PBS were then added to the wells and incubated at room temperature for 45 minutes.
(§3) After six washes with 0.5% Tween/PBS, 100 μl of 1:100,000 ExtrAvidin-alkaline phosphatase conjugate (Sigma) was then added to each of the wells and incubated at room temperature for 30 minutes. The ExtrAvidin conjugate was removed by eight washes with 0.2% Tween/PBS, and the plates developed using 100 μl per well of p-nitrophenyl phosphate (Sigma) 1.0 mg/ml in 0.05M carbonate alkaline buffer pH9.6. The absorbance at 405 nm was then measured using a Multiscan plate reader (Labsystems Basingstoke UK).
(§4) Cytokine secretion was measured by interpolation from a standard curve generated by incubating duplicate wells with doubling dilutions of recombinant human IFN-γ or IL-10 or TGF-β (Pharmingen). The standard curves were modelled by a smoothed cubic spline function applied to the absorbance reading and the cytokine concentrations after a quasilogarithmic transformation, where: quasiloge(z)=loge[z+{square root}[z^2+1]).
Using celELISA technique, the 68 RhD peptide panel was screened for the ability to induce IL-10 and TGF-β production for PBMC from a total of 19 samples from 12 different alloimmune donors. PMBC from 10 out of the 12 RhD-alloimmunised donors could produce IL-10 to at least one of the RhD peptides on at least one occasion, with a total of 194 significant IL-10 responses to the RhD peptides between all the donors. The RhD peptides that induced significant TGF-β or IL-10 and proliferative responses from PBMC in all the samples screened are summarised in FIGS. 10 and 11.

PBMC from AIHA patients = assay: celELISA of cytokine production by PBMC from AIHA patients; assay type: cell-based, human; conditions: AIHA patients (11); 42 of the 68 RhD peptides tested; FIG. 21
Procedure: as §1, §2, §3, §4
The same 68 RhD peptide panel as used in Example 1.3 was used in the present Example. Further, the same experimental protocols used in Examples 1.3.
Using the celELISA technique, 42 of the 68 RhD peptide panel were screened for the ability to induce IL-10 production from PBMC from 11 patients with AIHA.

Sequence	percentage of donors whose PBMC produced significant IL-10 [1] [%]	percentage of patients whose PBMC produced significant IL-10 (PBMC from AIHA patients) [%]	percentage of donors whose PBMC produced significant TGF-β1 [1] [%]
LAIVIALTSGLLTGL (Residue 372-386 RhD; listed as Homo sapiens) [compound 62]	≥ 20	> 20	
LGFLTSSFRRHSWSS (Residue 62-76 RhD; listed as Homo sapiens) [compound 8]	≥ 20	> 20	
IYVFAAYFGLSVAWC (Residue 172-186 RhD; listed as Homo sapiens) [compound 27]		> 20	≥ 20
SIRLATMSALSVLIS (Residue 112-126 RhD; listed as Homo sapiens) [peptide 16]	≥ 20	> 20	
CLPLWALTLEAALIL (Residues 12-26 RhD; listed as Homo sapiens) [peptide 2]	≥ 20	> 20	
VGAGNGMIGFQVLLS (Residue 352-366 RhD; listed as Homo sapiens) [compound 60]	≥ 20	> 20	
NTDYHMNMMHIYVFA (Residue 162-176 RhD; listed as Homo sapiens) [compound 25]	≥ 20	> 20	
YYAVAVSVVTAISGS (Residue 242-256 RhD; listed as Homo sapiens) [compound 41]		> 20	≥ 20
KGLVASYQVGQDLTV (Residue 42-56 RhD; listed as Homo sapiens) [compound 5]		> 20	≥ 20
